Source: publication PMC10746255
These are yes or no findings as the source states them, for the method shown. Sequences can lack the tags named with a protein.

Target: T1, PhoQ, sensor kinase of the PhoQP two-component system (wild type), fused to the CyaA T25 fragment (E. coli) (UniProt P23837)
T1 sequence: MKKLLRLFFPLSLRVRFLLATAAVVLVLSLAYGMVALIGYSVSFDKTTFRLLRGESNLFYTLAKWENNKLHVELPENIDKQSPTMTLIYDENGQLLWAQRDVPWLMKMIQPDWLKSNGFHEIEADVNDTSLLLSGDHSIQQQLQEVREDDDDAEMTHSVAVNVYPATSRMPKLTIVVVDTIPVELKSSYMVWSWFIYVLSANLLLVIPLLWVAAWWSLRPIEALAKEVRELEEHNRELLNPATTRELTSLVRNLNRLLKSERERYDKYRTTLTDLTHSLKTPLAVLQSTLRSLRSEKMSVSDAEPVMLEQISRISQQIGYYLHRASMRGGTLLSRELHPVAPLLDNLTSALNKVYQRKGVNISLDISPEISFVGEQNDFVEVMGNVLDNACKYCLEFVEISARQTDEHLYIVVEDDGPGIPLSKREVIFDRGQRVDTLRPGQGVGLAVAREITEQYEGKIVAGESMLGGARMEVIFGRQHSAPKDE
Experiment: two-hybrid; bacterial two-hybrid (CyaA T18/T25 fragments) in cya- E. coli SAM85; T18-MgrB (pUT18C) co-transformed with T25-PhoQ (pAL27); 10 uL culture spotted on LB agar with 1 mM IPTG and 50 ug/mL X-Gal, 37°C ~17 h; blue colonies = interaction, white = no interaction

MgrB mutant mgrB-ΔA98 (frameshift), fused to the CyaA T18 fragment (from UniProt P64512)
binding: no binding

MgrB mutant mgrB-ΔT100 (frameshift), fused to the CyaA T18 fragment (from UniProt P64512)
binding: no binding
